Data as given in PubChem BioAssay AID504791 (Drosophila RNAi Screening Center, 2011).

Screen: 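Genes whose knock-down strengthens or weakens small-RNA reporter silencing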 (primary screen)
System: Drosophila S2-derived reporter cells
Reagents: long dsRNA against Drosophila genes, about 150-250 ng dsRNA per well (siRNA assay); about 80-120 ng (miRNA assay)
Duration: about 5 days (siRNA assay); about 4 days (miRNA assay)
Challenge: copper sulfate induction of reporters: 25 µM (siRNA assay); 200 mM stated (miRNA assay), 1-2 days before reading
Read-out: 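Dual luciferase assay: Renilla to firefly signal ratio in each well, scaled to the mean ratio of its plate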
Rule for the call: 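a well was a first-pass pick when its plate-scaled ratio rose above 1.5 (siRNA assay) or 1.6 (miRNA assay), or dropped below 0.6; a gene counted only if two separate dsRNAs agreed on retest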
The deposit covers about 23,000 reagents; shown is an unselected part of those that have a named target and a result. Over the whole deposit, 199 (0.86%) are marked active. 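Plate-scaled ratios behind the calls are not deposited; printed light signals are raw; many rows marked increased or decreased are still called inactive.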 The numbers tell different reagents against one gene apart. Names joined by + are all predicted targets of the reagent. Not stated in the record: the direction of the score.

gene knocked down	dsRNA no.	stable siRNA reporter change	miRNA reporter change	stable assay Renilla, run 1 (luminescence)	stable assay firefly, run 1 (luminescence)	call
Myb	1			7108	3.40e5	inactive
CG4377	1			1.98e5	3.88e5	inactive
RecQ4	1			6218	3.81e5	inactive
CG15056	1			5948	4.14e5	inactive
CG11672	1			7992	4.56e5	inactive
Taf10b	1			8043	5.72e5	inactive
cato	1			7246	3.55e5	inactive
CG17147	1			6104	4.87e5	inactive
CG15185	1			5578	3.39e5	inactive
Polr3B	1			8929	5.82e5	inactive
Upf2	1			6066	3.70e5	inactive
Smu1	1			9904	5.47e5	inactive
olf186-M	1			4747	3.13e5	inactive
CG15635	1			3559	3.89e5	inactive
CG15635	2			4635	4.84e5	inactive
NimC4	1			7164	4.19e5	inactive
Mur82C	1			4055	3.79e5	inactive
Mur82C	2			4466	4.90e5	inactive
ATP8 (retired record)	1			5587	4.02e5	inactive
Dbp80	1			9619	4.72e5	inactive
ste24b	1			6634	3.19e5	inactive
CG8915	1			7171	3.71e5	inactive
Cpr11B	1			6963	3.00e5	inactive
CG13285	1			5579	4.09e5	inactive
BBS4	1			3443	3.73e5	inactive
CG5697	1			7346	3.50e5	inactive
baf	1			6362	5.04e5	inactive
Scox	1			6476	4.56e5	inactive
CG14839	1			4455	3.86e5	inactive
inaD	1			6471	4.34e5	inactive
CG33770	1			8399	3.96e5	inactive
Eig71Ee	1			8591	4.24e5	inactive
CG30151	1			6450	4.76e5	inactive
Oli	1			6918	1.34e6	inactive
CG33229	1			8251	5.54e5	inactive
Golgin245	1			95891	5.28e5	inactive
Golgin245	2			11553	7.07e5	inactive
CG3625	1			4332	3.87e5	inactive
CG3625	2			12486	4.29e5	inactive
CG7778	1			11855	6.82e5	inactive
CG34281	1			7358	5.17e5	inactive
HP1e	1			8290	5.15e5	inactive
bdwf	1			9363	3.24e5	inactive
CG2267	1			6996	4.09e5	inactive
Mlp84B	1			7134	4.45e5	inactive
ArgRS-m	1			5999	5.03e5	inactive
CG30099	1			6943	2.96e5	inactive
mRpL51	1			6223	6.28e5	inactive
Strn-Mlck	1			7931	3.55e5	inactive
Strn-Mlck	2			6186	4.22e5	inactive
Strn-Mlck	3			7490	4.85e5	inactive
CG17211	1			6703	3.91e5	inactive
ric8b + ric8a	1			5004	4.60e5	inactive
CG17440	1			5015	3.65e5	inactive
CecB	1			6434	5.53e5	inactive
Cp16	1			6320	3.68e5	inactive
CG11449	1			8035	4.28e5	inactive
CG7049	1			9673	2.96e5	inactive
fru	1	reporter ratio raised past the hit cutoff		6112	1.91e5	inactive
fru	2			4147	3.32e5	inactive
fru	3			5375	4.54e5	inactive
fru	4			7795	3.89e5	inactive
COX5A	1			5920	4.58e5	inactive
LPCAT	1			4071	3.53e5	inactive
LPCAT	2			6590	5.42e5	inactive
tweek	1			7331	4.31e5	inactive
tweek	2			7126	3.81e5	inactive
tweek	3			8676	2.07e6	inactive
tweek	4			4608	2.78e5	inactive
Mon1	1			7267	3.89e5	inactive
Mon1	2		reporter ratio lowered past the hit cutoff			inactive
CG30178	1			7643	4.18e5	inactive
Brr2	1			9345	2.57e5	inactive
spag	1			6198	3.55e5	inactive
serp	1			7223	4.14e5	inactive
serp	2			7086	3.98e5	inactive
CG17985	1			6758	3.29e5	inactive
Pur-alpha	1			8551	5.59e5	inactive
CG30350	1			6742	4.76e5	inactive
gammaTub37C	1			16259	1.39e6	inactive
CG31210 (retired record) + CG4836	1			9683	4.81e5	inactive
Klp67A + CG34456	1			7286	6.80e5	inactive
IP3K1 + hpRNA:CR18854	1			9078	5.41e5	inactive

Sorted by “stable assay firefly, run 1 (luminescence)” (descending): some entries from above.
gene knocked down	dsRNA no.	stable siRNA reporter change	miRNA reporter change	stable assay Renilla, run 1 (luminescence)	stable assay firefly, run 1 (luminescence)	call
ArgRS-m	1			5999	5.03e5	inactive
Mlp84B	1			7134	4.45e5	inactive
CG2267	1			6996	4.09e5	inactive
bdwf	1			9363	3.24e5	inactive
CG30099	1			6943	2.96e5	inactive
